Results deposited as PubChem BioAssay AID1259405 (NCATS, 2018)
Assay: 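Knock-downs that lift recombinant protein yield in hamster ovary cells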 (primary screen). System: Chinese hamster CHO-K1 ovary cells with stable secreted eGFP expression. Knock-down reagent: single siRNA against mouse genes, 0.8 pmol siRNA per well (2 µl of 400 nM stock). Duration: 3 days. Measured: 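Per-well intracellular GFP measured by laser scanning cytometry, plus viability from ATP luminescence, each relative to plate median of non-targeting control wells, in %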. Direction: GFP, % of control: higher = more GFP per well, higher productivity; viability (ATP), % of control: higher = more viable cells (more ATP). Active means: 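Called active when intracellular GFP, relative to negative control, is at or above 120%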.
The whole screen tested about 50,000 reagents; this is a part drawn at random. Of all reagents, about 4,000 (8%) are marked active. 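Mouse siRNA library applied to hamster cells; one well for each siRNA.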 Entries without a mark were called inactive. The numbers tell different reagents against one gene apart.

gene | reagent | GFP, % of control | viability (ATP), % of control
Eif2d (eukaryotic translation initiation factor 2D) | 1 | 63.5 | 68.2
Eif2d (eukaryotic translation initiation factor 2D) | 2 | 81.3 | 66.2
Eif2d (eukaryotic translation initiation factor 2D) | 3 | 72.5 | 46.8
Rfc4 (replication factor C (activator 1) 4) | 1 | 106 | 119
Rfc4 (replication factor C (activator 1) 4) | 2 | 117 | 97.9
Fcrlb (Fc receptor-like B) | 1 | 32.4 | 46.7
Fcrlb (Fc receptor-like B) | 2 | 74.8 | 88.8
Fcrlb (Fc receptor-like B) | 3 | 38.3 | 63.7
Gmpr2 (guanosine monophosphate reductase 2) | 1 | 59.9 | 61.3
Gmpr2 (guanosine monophosphate reductase 2) | 2 | 74 | 110
Gmpr2 (guanosine monophosphate reductase 2) | 3 | 57.4 | 59.3
Slc8a1 | 1 | 107 | 73.6
Slc8a1 | 2 | 81.8 | 65.5
Slc8a1 | 3 | 79.1 | 86.6
Mmp3 (matrix metallopeptidase 3) | 1 | 99.1 | 73.9
Mmp3 (matrix metallopeptidase 3) | 2 | 69 | 65.5
Or6c2 (olfactory receptor family 6 subfamily C member 2) | 1 | 92.1 | 81.7
Or6c2 (olfactory receptor family 6 subfamily C member 2) | 2 | 25.1 | 38.1
Or6c2 (olfactory receptor family 6 subfamily C member 2) | 3 | 118 | 36.8
Rbm38 (RNA binding motif protein 38) | 1 | 85.4 | 89.8
Rbm38 (RNA binding motif protein 38) | 2 | 71.8 | 70.7
Cav2 (caveolin 2) | 1 | 78.4 | 57.4
Cav2 (caveolin 2) | 2 | 64 | 61.9
Ifi27 (interferon, alpha-inducible protein 27) | 1 | 123 (active) | 77.3
Ifi27 (interferon, alpha-inducible protein 27) | 2 | 103 | 79.1
Ifi27 (interferon, alpha-inducible protein 27) | 3 | 118 | 128
Rusf1 (RUS family member 1) | 1 | 80.7 | 42.4
Rusf1 (RUS family member 1) | 2 | 43.7 | 55.4
Rusf1 (RUS family member 1) | 3 | 105 | 83.4
Kcnj15 | 1 | 128 (active) | 56.4
Kcnj15 | 2 | 68.7 | 40.3
Kcnj15 | 3 | 91.5 | 79.8
Dctpp1 (dCTP pyrophosphatase 1) | 1 | 112 | 59
Dctpp1 (dCTP pyrophosphatase 1) | 2 | 74.7 | 73.6
Dctpp1 (dCTP pyrophosphatase 1) | 3 | 83.8 | 89.5
Ctsd (cathepsin D) | 1 | 75.5 | 83.9
Ctsd (cathepsin D) | 2 | 65 | 80.3
Ctsd (cathepsin D) | 3 | 71.5 | 41.8
Ocstamp (osteoclast stimulatory transmembrane protein) | 1 | 97.5 | 88.9
Ocstamp (osteoclast stimulatory transmembrane protein) | 2 | 65.3 | 70.4
Ocstamp (osteoclast stimulatory transmembrane protein) | 3 | 79.9 | 55.5
Tas2r108 (taste receptor, type 2, member 108) | 1 | 59 | 70.5
Tas2r108 (taste receptor, type 2, member 108) | 2 | 76.5 | 101
Tas2r108 (taste receptor, type 2, member 108) | 3 | 98.3 | 116
Phyhip (phytanoyl-CoA hydroxylase interacting protein) | 1 | 118 | 82.4
Phyhip (phytanoyl-CoA hydroxylase interacting protein) | 2 | 44.4 | 59.4
Spata31g1 (SPATA31 subfamily G member 1) | 1 | 103 | 72.2
Spata31g1 (SPATA31 subfamily G member 1) | 2 | 47 | 84.9
Spata31g1 (SPATA31 subfamily G member 1) | 3 | 25 | 42.7
H2-M10.6 (histocompatibility 2, M region locus 10.6) | 1 | 83.2 | 64.7
H2-M10.6 (histocompatibility 2, M region locus 10.6) | 2 | 85.8 | 79.9
H2-M10.6 (histocompatibility 2, M region locus 10.6) | 3 | 73.4 | 66.3
Tmsb4x (thymosin, beta 4, X chromosome) | 1 | 67.9 | 71
Tmsb4x (thymosin, beta 4, X chromosome) | 2 | 82.5 | 77.1
Tmsb4x (thymosin, beta 4, X chromosome) | 3 | 113 | 98.1
Dolk (dolichol kinase) | 1 | 126 (active) | 86.8
Dolk (dolichol kinase) | 2 | 94.6 | 117
Dolk (dolichol kinase) | 3 | 101 | 83.9
Sfmbt1 (Scm-like with four mbt domains 1) | 1 | 124 (active) | 62.1
Sfmbt1 (Scm-like with four mbt domains 1) | 2 | 69.5 | 54.9
Sfmbt1 (Scm-like with four mbt domains 1) | 3 | 141 (active) | 104
Sfmbt1 (Scm-like with four mbt domains 1) | 4 | 68.1 | 68.2
Sfmbt1 (Scm-like with four mbt domains 1) | 5 | 75 | 95
Sfmbt1 (Scm-like with four mbt domains 1) | 6 | 61.4 | 61.9
Emilin3 (elastin microfibril interfacer 3) | 1 | 45.2 | 51.8
Emilin3 (elastin microfibril interfacer 3) | 2 | 68 | 78.6
Emilin3 (elastin microfibril interfacer 3) | 3 | 64.2 | 56.6
Nod1 (nucleotide-binding oligomerization domain containing 1) | 1 | 89.4 | 147
Nod1 (nucleotide-binding oligomerization domain containing 1) | 2 | 102 | 77

Next part (8 carried over from the part before).
gene | reagent | GFP, % of control | viability (ATP), % of control
Sfmbt1 (Scm-like with four mbt domains 1) | 4 | 68.1 | 68.2
Sfmbt1 (Scm-like with four mbt domains 1) | 5 | 75 | 95
Sfmbt1 (Scm-like with four mbt domains 1) | 6 | 61.4 | 61.9
Emilin3 (elastin microfibril interfacer 3) | 1 | 45.2 | 51.8
Emilin3 (elastin microfibril interfacer 3) | 2 | 68 | 78.6
Emilin3 (elastin microfibril interfacer 3) | 3 | 64.2 | 56.6
Nod1 (nucleotide-binding oligomerization domain containing 1) | 1 | 89.4 | 147
Nod1 (nucleotide-binding oligomerization domain containing 1) | 2 | 102 | 77
Rab21 (RAB21, member RAS oncogene family) | 1 | 59.5 | 91
Rab21 (RAB21, member RAS oncogene family) | 2 | 95.8 | 90.1
Rab21 (RAB21, member RAS oncogene family) | 3 | 76.3 | 87
Or5p52 (olfactory receptor family 5 subfamily P member 52) | 1 | 109 | 60
Or5p52 (olfactory receptor family 5 subfamily P member 52) | 2 | 103 | 97.1
Or5p52 (olfactory receptor family 5 subfamily P member 52) | 3 | 103 | 82.5
Alcam (activated leukocyte cell adhesion molecule) | 1 | 108 | 122
Alcam (activated leukocyte cell adhesion molecule) | 2 | 62.7 | 60.6
Alcam (activated leukocyte cell adhesion molecule) | 3 | 64 | 86
Adam21 (a disintegrin and metallopeptidase domain 21) | 1 | 88.8 | 78.8
Adam21 (a disintegrin and metallopeptidase domain 21) | 2 | 127 (active) | 83.6
Adam21 (a disintegrin and metallopeptidase domain 21) | 3 | 95.4 | 92.7
Prkg2 (protein kinase, cGMP-dependent, type II) | 1 | 48.8 | 66.4
Mrpl27 (mitochondrial ribosomal protein L27) | 1 | 96.8 | 86.1
Mrpl27 (mitochondrial ribosomal protein L27) | 2 | 76.4 | 52.2
Mrpl27 (mitochondrial ribosomal protein L27) | 3 | 86.2 | 87.1
Lias (lipoic acid synthetase) | 1 | 71.4 | 86.6
Lias (lipoic acid synthetase) | 2 | 102 | 108
Ube2e3 (ubiquitin-conjugating enzyme E2E 3) | 1 | 124 (active) | 84.5
Ube2e3 (ubiquitin-conjugating enzyme E2E 3) | 2 | 64.6 | 54.4
Ube2e3 (ubiquitin-conjugating enzyme E2E 3) | 3 | 66.7 | 73.6
Ly75 (lymphocyte antigen 75) | 1 | 106 | 92
Ly75 (lymphocyte antigen 75) | 2 | 151 (active) | 88.3
Ly75 (lymphocyte antigen 75) | 3 | 82.4 | 69.2
Rnf138rt1 (ring finger protein 138, retrogene 1) | 1 | 107 | 72
Rnf138rt1 (ring finger protein 138, retrogene 1) | 2 | 52.7 | 71.3
Rnf138rt1 (ring finger protein 138, retrogene 1) | 3 | 102 | 102
Csf2rb | 1 | 116 | 85.2
Csf2rb | 2 | 52.2 | 61.4
Csf2rb | 3 | 89.2 | 83.4
Higd1b (HIG1 domain family, member 1B) | 1 | 95.8 | 100
Higd1b (HIG1 domain family, member 1B) | 2 | 43.9 | 51.1
Higd1b (HIG1 domain family, member 1B) | 3 | 98 | 67.7
Clstn2 (calsyntenin 2) | 1 | 74.6 | 109
Clstn2 (calsyntenin 2) | 2 | 124 (active) | 65.9
Clstn2 (calsyntenin 2) | 3 | 85.2 | 96.1
Slc2a5 | 1 | 46.2 | 97.3
Slc2a5 | 2 | 84.8 | 93.3
Slc2a5 | 3 | 66.5 | 67.7
